PubChem BioAssay AID504786 | Drosophila RNAi Screening Center, 2011

Test: 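Fly genes required for HIF-dependent transcription when hypoxia is mimicked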 (primary screen)
Cell system: Drosophila S2 cells with a stable HIF luciferase reporter
Knock-down reagent: long dsRNA against Drosophila genes, about 0.2 µg dsRNA per well of a 384-well plate
Time to read-out: three days of knock-down, then 20 h of DFO before reading
Challenge: desferrioxamine (DFO) at 100 µM, an iron chelator that mimics hypoxia, for 20 h
Detection: 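HIF reporter luminescence in cells given 100 µM DFO for 20 h, using the mouse ldh-a hypoxia-response element, scored as per-plate z-scores; higher means greater loss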
Scale: z-score: higher = stronger loss of HIF reporter signal
The screen tested about 21,000 reagents; below is an unselected part of those that have a named target and a result. 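Primary screen; positive scores mean lost reporter signal, so the sign may be inverted from the usual convention.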 Reagents against one gene are numbered here. A plus sign joins genes that one reagent is predicted to hit. Reagent sequences are not shown.

The first 6 records as a preview:
| predicted target | reagent no. | z-score, replicate 1 | z-score, replicate 2 |
| --- | --- | --- | --- |
| euc (eucalyptus) | 1 | -1.3 | 0 |
| CG14459 | 1 | 4.2 | 5.3 |
| stet (stem cell tumor) | 1 | -0.3 | 0.3 |
| stet (stem cell tumor) | 2 | -0.5 | 0.8 |
| l(3)76BDm (lethal (3) 76BDm) | 1 | -0.4 | -0.5 |
| CG9512 | 1 | -0.3 | 0 |

The list itself, repeating the preview:
| predicted target | reagent no. | z-score, replicate 1 | z-score, replicate 2 |
| --- | --- | --- | --- |
| euc (eucalyptus) | 1 | -1.3 | 0 |
| CG14459 | 1 | 4.2 | 5.3 |
| stet (stem cell tumor) | 1 | -0.3 | 0.3 |
| stet (stem cell tumor) | 2 | -0.5 | 0.8 |
| l(3)76BDm (lethal (3) 76BDm) | 1 | -0.4 | -0.5 |
| CG9512 | 1 | -0.3 | 0 |
| CG11885 | 1 | -1.2 | -0.1 |
| l(2)10685 (lethal (2) 10685) | 1 | 0 | -0.1 |
| nenya | 1 | 0 | 0 |
| CG5011 | 1 | -0.6 | -0.5 |
| CG5011 | 2 | -0.2 | 0.1 |
| CG10226 | 1 | -0.4 | -0.4 |
| HP5 (Heterochromatin protein 5) | 1 | -0.3 | -0.5 |
| CG14448 | 1 | -0.2 | -0.3 |
| CR32745 (pseudo) | 1 | -0.1 | -0.1 |
| lncRNA:CR32368 (long non-coding RNA:CR32368) | 1 | 0.2 | 0.8 |
| arm (armadillo) | 1 | -0.1 | -0.8 |
| CG9933 | 1 | -0.3 | 0 |
| Lpt (Lost PHDs of trr) | 1 | -0.4 | -0.5 |
| Lpt (Lost PHDs of trr) | 2 | -0.4 | -0.4 |
| CG15027 | 1 | -0.3 | -0.5 |
| l(2)05287 (lethal (2) 05287) | 1 | 0.5 | 2 |
| l(2)05287 (lethal (2) 05287) | 2 | 0.2 | 1.7 |
| Uhg2 + snoRNA:Me18S-G1620 + snoRNA:U14:30Ea | 1 | -0.1 | -0.4 |
| CG2113 | 1 | -0.3 | -0.4 |
| CG18234 | 1 | -0.3 | -0.3 |
| repo (reversed polarity) | 1 | 0.1 | -0.6 |
| CG10000 | 1 | -0.3 | -0.5 |
| CG15561 | 1 | -0.4 | -0.1 |
| CG4880 | 1 | -0.2 | -0.6 |
| Efhc1.1 (EF-hand domain containing 1.1) | 1 | -0.2 | -0.7 |
| CG31406 | 1 | -0.2 | -0.2 |
| CG8176 | 1 | -0.4 | -0.9 |
| CG3270 | 1 | -0.2 | -0.3 |
| CG14017 | 1 | -0.2 | 0.1 |
| Agpat4 (1-Acylglycerol-3-phosphate O-acyltransferase 4) | 1 | -0.1 | 0 |
| CG16853 | 1 | -0.1 | -0.1 |
| vir (virilizer) | 1 | -0.3 | -0.1 |
| Lac (Lachesin) | 1 | -0.2 | -0.2 |
| MYPT-75D (Myosin phosphatase targeting subunit 75D) | 1 | -0.4 | -0.6 |
| CG34198 | 1 | -0.8 | 0 |
| CG31673 | 1 | -0.2 | 0.1 |
| CG14676 | 1 | 0.1 | 0.1 |
| CG10301 | 1 | 0.1 | 0 |
| CG6428 | 1 | -0.3 | -0.3 |
| CG5704 | 1 | -0.3 | -0.3 |
| CG9444 | 1 | -0.3 | -0.4 |
| wit (wishful thinking) | 1 | -0.3 | -0.4 |
| Treh (Trehalase) | 1 | -0.4 | -0.9 |
| RpS7 (Ribosomal protein S7) | 1 | 5 | 6.9 |
| CG14253 | 1 | -0.3 | -0.4 |
| CG31093 | 1 | -0.2 | -0.8 |
| Hil (Hillarin) | 1 | -0.2 | -0.4 |
| Hil (Hillarin) | 2 | -0.4 | -0.3 |
| CG18449 | 1 | -0.2 | -0.4 |
| PCNA2 (Proliferating cell nuclear antigen 2) | 1 | -0.3 | -0.2 |
